Measurements taken from the supplement of paper PMC6078165.

Tested on: HCC1143
Assay: relative JC-1 red fluorescence (viability) vs pre-drug, coculture with fibroblast (fraction); higher = more viable cancer cells
Experimental: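 JC-1 labelled TNBC cells cocultured 1:1 (1,500 cells each) with CellTrace Violet stained primary or stromal fibroblasts in 384-well plates in FluoroBrite medium, treated with one of 42 anticancer drugs at 0.1, 1, 10 or 100 uM. JC-1 red fluorescence (mitochondrial integrity in cancer cells only) was read by plate reader every 8 h for 72 h. Values are normalised to each well's pre-drug value. The stock of one drug was tenfold lower, so its dose labels may be too high.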

COc1cc([C@@H]2c3cc4c(cc3[C@@H](O[C@@H]3O[C@@H]5CO[C@@H](C)O[C@H]5[C@H](O)[C@H]3O)[C@H]3COC(=O)[C@H]23)OCO4)cc(OC)c1O [Etoposide]
relative JC-1 red fluorescence
Conditions	8 h	16 h	24 h	32 h	40 h	48 h	56 h	64 h	72 h
0.1 µM, coculture fibroblast: C12385	0.817	0.74	0.671	0.598	0.539	0.508	0.48	0.446	0.437
0.1 µM, coculture fibroblast: H6013	0.723	0.627	0.591	0.5651	0.50455	0.5048	0.474	0.4586	0.423
0.1 µM, coculture fibroblast: H6019	0.827	0.772	0.726	0.675	0.636	0.602	0.5507	0.50343	0.468
0.1 µM, coculture fibroblast: H6076	0.771	0.801	0.7412	0.6656	0.634	0.606	0.57	0.543	0.542
0.1 µM, coculture fibroblast: H6231	0.82	0.798	0.741	0.6408	0.639	0.606	0.564	0.53	0.51
0.1 µM, coculture fibroblast: HADF	0.727	0.674	0.649	0.65	0.578	0.573	0.539	0.518	0.484
0.1 µM, coculture fibroblast: HCFa	0.7084	0.633	0.589	0.556	0.47	0.453	0.4091	0.381	0.357
0.1 µM, coculture fibroblast: HCPF	0.788	0.767	0.7152	0.653	0.6101	0.59	0.561	0.529	0.5242
0.1 µM, coculture fibroblast: HHSteC	0.802	0.749	0.719	0.687	0.613	0.583	0.537	0.511	0.474
0.1 µM, coculture fibroblast: HMF	0.79	0.872	0.789	0.657	0.676	0.641	0.585	0.551	0.518
0.1 µM, coculture fibroblast: HPFa	0.9079	0.814	0.765	0.664	0.619	0.573	0.515	0.469	0.432
0.1 µM, coculture fibroblast: HUF	0.863	0.789	0.745	0.68	0.628	0.608	0.568	0.543	0.513
0.1 µM, coculture fibroblast: Hs5	0.844	0.876	0.817	0.76886	0.715	0.67	0.6414	0.612	0.61
0.1 µM, coculture fibroblast: Hs27A	0.699	0.638	0.62	0.634	0.525	0.528	0.484	0.457	0.413
0.1 µM, coculture fibroblast: Hs343T	0.804	0.851	0.778	0.663	0.6455	0.601	0.55204	0.5269	0.495
0.1 µM, coculture fibroblast: WS1	0.804	0.726	0.675	0.598	0.548	0.507	0.468	0.448	0.431
1 µM, coculture fibroblast: C12385	0.8343	0.746	0.6852	0.619	0.552	0.505	0.4714	0.437	0.423
1 µM, coculture fibroblast: H6013	0.717	0.648	0.607	0.588	0.518	0.508	0.472	0.461	0.4254
1 µM, coculture fibroblast: H6019	0.814	0.756	0.708	0.642	0.601	0.57	0.518	0.466	0.44
1 µM, coculture fibroblast: H6076	0.78	0.775	0.735	0.669	0.63	0.601	0.568	0.538	0.528
1 µM, coculture fibroblast: H6231	0.79	0.768	0.6996	0.604	0.601	0.563	0.524	0.486	0.458
1 µM, coculture fibroblast: HADF	0.7402	0.691	0.663	0.656	0.5761	0.562	0.526	0.501	0.456
1 µM, coculture fibroblast: HCFa	0.73845	0.666	0.624	0.596	0.515	0.489	0.449	0.422	0.384
1 µM, coculture fibroblast: HCPF	0.7884	0.8	0.747	0.623	0.655	0.616	0.573	0.538	0.513
1 µM, coculture fibroblast: HHSteC	0.833	0.767	0.737	0.705	0.634	0.618	0.573	0.539	0.484
1 µM, coculture fibroblast: HMF	0.786	0.773	0.721	0.68	0.635	0.616	0.577	0.553	0.542
1 µM, coculture fibroblast: HPFa	0.912	0.826	0.799	0.705	0.636	0.599	0.53	0.476	0.442
1 µM, coculture fibroblast: HUF	0.8427	0.742	0.677	0.5929	0.5366	0.5007	0.445	0.404	0.375
1 µM, coculture fibroblast: Hs5	0.863	0.876	0.853	0.804	0.766	0.7358	0.7067	0.688	0.672
1 µM, coculture fibroblast: Hs27A	0.714	0.63	0.602	0.616	0.5185	0.53	0.491	0.472	0.405
1 µM, coculture fibroblast: Hs343T	0.788	0.802	0.749	0.664	0.65	0.608	0.543	0.514	0.477
1 µM, coculture fibroblast: WS1	0.842	0.7673	0.729	0.663	0.611	0.579	0.544	0.514	0.486
10 µM, coculture fibroblast: C12385	0.843	0.768	0.7197	0.658	0.61	0.584	0.55	0.512	0.499
10 µM, coculture fibroblast: H6013	0.762	0.683	0.64	0.631	0.57	0.569	0.536	0.521	0.483
10 µM, coculture fibroblast: H6019	0.7921	0.721	0.662	0.597	0.562	0.528	0.488	0.442	0.415
10 µM, coculture fibroblast: H6076	0.8081	0.833	0.777	0.705	0.681	0.659	0.619	0.59	0.588
10 µM, coculture fibroblast: H6231	0.836	0.846	0.773	0.645	0.678	0.647	0.612	0.571	0.55
10 µM, coculture fibroblast: HADF	0.756	0.709	0.693	0.714	0.614	0.5868	0.5614	0.533	0.542
10 µM, coculture fibroblast: HCFa	0.793	0.724	0.688	0.669	0.599	0.581	0.544	0.513	0.467
10 µM, coculture fibroblast: HCPF	0.791	0.7643	0.714	0.66	0.642	0.619	0.581	0.544	0.542
10 µM, coculture fibroblast: HHSteC	0.852	0.809	0.79	0.772	0.723	0.713	0.674	0.652	0.593
10 µM, coculture fibroblast: HMF	0.796	0.8444	0.7574	0.6412	0.6571	0.625	0.5799	0.544	0.515
10 µM, coculture fibroblast: HPFa	0.897	0.819	0.78	0.697	0.659	0.625	0.5785	0.5421	0.505
10 µM, coculture fibroblast: HUF	0.873	0.748	0.676	0.601	0.553	0.502	0.444	0.401	0.366
10 µM, coculture fibroblast: Hs5	0.863	0.878	0.837	0.792	0.737	0.712	0.688	0.652	0.6602
10 µM, coculture fibroblast: Hs27A	0.7566	0.718	0.71	0.743	0.664	0.685	0.663	0.661	0.619
10 µM, coculture fibroblast: Hs343T	0.8123	0.821	0.7613	0.666	0.649	0.614	0.5652	0.543	0.515
10 µM, coculture fibroblast: WS1	0.809	0.734	0.693	0.634	0.588	0.556	0.517	0.482	0.455
100 µM, coculture fibroblast: C12385	0.825	0.781	0.708	0.665	0.625	0.597	0.571	0.535	0.53
100 µM, coculture fibroblast: H6013	0.769	0.706	0.658	0.643	0.58	0.572	0.544	0.541	0.518
100 µM, coculture fibroblast: H6019	0.806	0.744	0.712	0.669	0.644	0.627	0.608	0.581	0.57
100 µM, coculture fibroblast: H6076	0.784	0.816	0.769	0.685	0.6814	0.654	0.635	0.617	0.609
100 µM, coculture fibroblast: H6231	0.823	0.792	0.722	0.63	0.637	0.608	0.577	0.545	0.522
100 µM, coculture fibroblast: HADF	0.7732	0.7355	0.7014	0.696	0.584	0.553	0.525	0.508	0.497
100 µM, coculture fibroblast: HCFa	0.792	0.755	0.717	0.718	0.644	0.635	0.602	0.582	0.571
100 µM, coculture fibroblast: HCPF	0.825	0.784	0.7471	0.707	0.683	0.662	0.65	0.648	0.678
100 µM, coculture fibroblast: HHSteC	0.843	0.798	0.777	0.753	0.686	0.665	0.632	0.624	0.582
100 µM, coculture fibroblast: HMF	0.799	0.789	0.744	0.654	0.64	0.615	0.577	0.561	0.543
100 µM, coculture fibroblast: HPFa	0.907	0.838	0.807	0.721	0.675	0.664	0.608	0.593	0.578
100 µM, coculture fibroblast: HUF	0.882	0.7966	0.72083	0.637	0.586	0.562	0.515	0.479	0.456
100 µM, coculture fibroblast: Hs5	0.848	0.856	0.82	0.788	0.733	0.696	0.681	0.669	0.684
100 µM, coculture fibroblast: Hs27A	0.718	0.6506	0.622	0.6676	0.551	0.569	0.544	0.537	0.515
100 µM, coculture fibroblast: Hs343T	0.8035	0.882	0.818	0.665	0.679	0.624	0.561	0.54	0.505
100 µM, coculture fibroblast: WS1	0.8275	0.758	0.695	0.617	0.563	0.537	0.51	0.484	0.473

The reference is the same well before dosing, and untreated signal decays as well.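 Fibroblast labels name human fibroblasts: mostly primary ones from tissues such as uterus (C12385, HUF), lung (H6013), bone (Hs27A), adrenal (HADF) and skin (WS1), plus mammary HMF and breast cancer-associated Hs343T. The cancer cells are basal-like or mesenchymal-like triple-negative breast cancer lines. The paper calls a changed response a hit when it shifts by more than 3x the replicate standard deviation. The tissue of the other fibroblasts is not given here.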
